Assay results from publication PMC10689503, “CaMKK2 and CHK1 phosphorylate human STN1 in response to replication stress to protect stalled forks from aberrant resection”.
Residue numbers refer to the chain shown, from its start. Results are given in words; binding and its absence hold for the method and conditions named. For part of these data: In cells and extracts the contact can be indirect. Some binding calls cover weakened binding; strength is not graded here. For part of these data: Tags and fused reporters may be left off the sequences shown.

Chains of the proteins cited; added tags and fusions are not shown. Lines headed by an entry give the natural chain unless they say otherwise; changes in a name come on top.
UniProt Q2NKJ3: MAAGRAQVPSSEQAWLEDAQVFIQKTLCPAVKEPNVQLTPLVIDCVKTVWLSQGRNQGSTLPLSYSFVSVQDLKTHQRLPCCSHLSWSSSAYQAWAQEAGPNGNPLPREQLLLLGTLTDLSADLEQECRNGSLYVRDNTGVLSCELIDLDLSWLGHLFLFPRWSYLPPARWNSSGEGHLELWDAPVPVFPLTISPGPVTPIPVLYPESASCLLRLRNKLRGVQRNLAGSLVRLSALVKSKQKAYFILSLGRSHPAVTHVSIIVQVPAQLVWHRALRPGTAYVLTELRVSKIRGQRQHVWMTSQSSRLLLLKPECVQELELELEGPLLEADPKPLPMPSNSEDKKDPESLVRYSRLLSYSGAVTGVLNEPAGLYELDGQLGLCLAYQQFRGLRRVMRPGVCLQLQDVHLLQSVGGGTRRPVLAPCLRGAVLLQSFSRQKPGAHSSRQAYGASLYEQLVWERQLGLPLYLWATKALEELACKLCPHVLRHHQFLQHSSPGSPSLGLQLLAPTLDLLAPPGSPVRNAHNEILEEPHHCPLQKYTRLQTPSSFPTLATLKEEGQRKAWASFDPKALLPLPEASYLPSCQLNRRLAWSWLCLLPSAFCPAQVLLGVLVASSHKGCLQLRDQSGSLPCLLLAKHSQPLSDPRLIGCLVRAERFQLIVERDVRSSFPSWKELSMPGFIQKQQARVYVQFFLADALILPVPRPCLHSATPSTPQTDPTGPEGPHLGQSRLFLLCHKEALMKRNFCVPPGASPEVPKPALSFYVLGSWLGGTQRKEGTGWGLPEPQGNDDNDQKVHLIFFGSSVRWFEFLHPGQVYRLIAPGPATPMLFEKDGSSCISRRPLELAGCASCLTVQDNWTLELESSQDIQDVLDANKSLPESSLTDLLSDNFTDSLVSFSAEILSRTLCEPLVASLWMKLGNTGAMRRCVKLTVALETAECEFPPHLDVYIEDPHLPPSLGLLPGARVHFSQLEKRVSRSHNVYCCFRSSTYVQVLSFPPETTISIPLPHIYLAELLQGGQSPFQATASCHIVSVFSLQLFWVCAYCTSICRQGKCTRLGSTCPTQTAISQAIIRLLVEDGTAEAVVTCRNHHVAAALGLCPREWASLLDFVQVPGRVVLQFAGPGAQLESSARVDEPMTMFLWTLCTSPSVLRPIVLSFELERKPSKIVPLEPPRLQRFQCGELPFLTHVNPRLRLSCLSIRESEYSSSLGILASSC
UniProt Q86WV5: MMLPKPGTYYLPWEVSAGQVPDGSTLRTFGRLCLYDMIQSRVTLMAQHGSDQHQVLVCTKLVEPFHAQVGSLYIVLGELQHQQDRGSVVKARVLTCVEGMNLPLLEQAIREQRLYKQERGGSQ
UniProt Q06609: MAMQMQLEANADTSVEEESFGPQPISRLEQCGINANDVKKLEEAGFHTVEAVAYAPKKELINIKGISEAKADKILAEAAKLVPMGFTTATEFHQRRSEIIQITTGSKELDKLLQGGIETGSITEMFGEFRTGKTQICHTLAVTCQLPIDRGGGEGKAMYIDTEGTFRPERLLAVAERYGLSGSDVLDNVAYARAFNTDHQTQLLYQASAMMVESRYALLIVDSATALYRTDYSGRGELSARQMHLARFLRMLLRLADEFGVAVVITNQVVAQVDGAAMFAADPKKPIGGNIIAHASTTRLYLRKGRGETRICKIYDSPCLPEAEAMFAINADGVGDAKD
UniProt P09884: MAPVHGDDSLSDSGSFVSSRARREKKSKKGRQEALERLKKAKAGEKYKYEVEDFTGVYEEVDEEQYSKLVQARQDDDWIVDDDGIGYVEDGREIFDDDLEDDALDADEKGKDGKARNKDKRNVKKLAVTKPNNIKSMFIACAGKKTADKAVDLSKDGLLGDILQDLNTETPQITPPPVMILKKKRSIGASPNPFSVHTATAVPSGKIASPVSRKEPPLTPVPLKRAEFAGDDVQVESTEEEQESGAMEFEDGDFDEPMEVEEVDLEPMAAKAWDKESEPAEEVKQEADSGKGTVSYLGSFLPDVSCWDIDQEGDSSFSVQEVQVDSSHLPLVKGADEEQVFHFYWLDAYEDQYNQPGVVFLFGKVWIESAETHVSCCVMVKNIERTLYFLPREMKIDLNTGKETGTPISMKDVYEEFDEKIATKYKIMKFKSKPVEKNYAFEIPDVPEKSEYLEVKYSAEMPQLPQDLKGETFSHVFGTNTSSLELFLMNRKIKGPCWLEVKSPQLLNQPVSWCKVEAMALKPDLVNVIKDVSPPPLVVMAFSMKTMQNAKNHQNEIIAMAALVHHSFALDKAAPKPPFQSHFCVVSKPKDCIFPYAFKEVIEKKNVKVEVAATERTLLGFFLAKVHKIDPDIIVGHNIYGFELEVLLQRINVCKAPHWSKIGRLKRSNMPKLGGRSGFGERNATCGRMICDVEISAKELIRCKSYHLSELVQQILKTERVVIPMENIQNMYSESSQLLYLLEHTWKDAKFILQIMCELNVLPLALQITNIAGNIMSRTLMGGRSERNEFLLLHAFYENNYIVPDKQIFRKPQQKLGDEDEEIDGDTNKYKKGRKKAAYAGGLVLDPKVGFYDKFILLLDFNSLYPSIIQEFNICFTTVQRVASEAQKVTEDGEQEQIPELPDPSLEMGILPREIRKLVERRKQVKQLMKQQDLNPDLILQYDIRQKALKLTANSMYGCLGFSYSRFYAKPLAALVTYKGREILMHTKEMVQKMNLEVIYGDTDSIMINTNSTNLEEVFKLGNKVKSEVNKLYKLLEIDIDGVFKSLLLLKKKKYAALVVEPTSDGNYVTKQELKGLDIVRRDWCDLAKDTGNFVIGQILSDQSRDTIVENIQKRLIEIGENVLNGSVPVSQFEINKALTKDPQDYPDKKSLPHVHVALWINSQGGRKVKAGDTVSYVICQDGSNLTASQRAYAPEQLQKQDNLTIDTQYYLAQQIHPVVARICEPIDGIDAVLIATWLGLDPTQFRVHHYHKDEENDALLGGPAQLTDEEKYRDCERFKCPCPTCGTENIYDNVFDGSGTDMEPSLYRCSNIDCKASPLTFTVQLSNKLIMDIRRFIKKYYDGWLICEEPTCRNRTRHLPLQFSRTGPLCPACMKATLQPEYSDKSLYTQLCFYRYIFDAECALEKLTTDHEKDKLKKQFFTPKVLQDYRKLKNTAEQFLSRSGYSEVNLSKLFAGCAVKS

Assays:
[1] = target: CTC1-S96D-TEN1 complex (human) (UniProt Q2NKJ3+Q9H668+Q86WV5); assay: pull-down; 1 µM CST (His6 at the C-terminus of TEN1) with 1 µM RAD51, 20 min at 37 °C, 35 mM Tris-HCl pH 7.5, 10% glycerol, 0.01% Igepal, 1 mM 2-mercaptoethanol, 10 mM imidazole, 50 mM KCl; captured on His-Tag Dynabeads; SDS-PAGE, Coomassie blue; both purified
[2] = target: CTC1-S96A-TEN1 complex (human) (UniProt Q2NKJ3+Q9H668+Q86WV5); assay: as above
[3] = target: Flag-CTC1-STN1-TEN1-His6 wild-type CST complex (human) (UniProt Q2NKJ3+Q9H668+Q86WV5); assay: as above
[4] = target: T1, Myc-tagged WT-STN1 (human) (UniProt Q9H668); assay: co-IP; HEK293T transfected with Myc-STN1/S96D/S96A, 4 mM HU for 3 h; anti-c-Myc agarose resin; lysis buffer 0.1% NP-40, 50 mM Tris-HCl pH 7.4, 50 mM NaCl, 2 mM DTT; western blot for POLα
T1 sequence: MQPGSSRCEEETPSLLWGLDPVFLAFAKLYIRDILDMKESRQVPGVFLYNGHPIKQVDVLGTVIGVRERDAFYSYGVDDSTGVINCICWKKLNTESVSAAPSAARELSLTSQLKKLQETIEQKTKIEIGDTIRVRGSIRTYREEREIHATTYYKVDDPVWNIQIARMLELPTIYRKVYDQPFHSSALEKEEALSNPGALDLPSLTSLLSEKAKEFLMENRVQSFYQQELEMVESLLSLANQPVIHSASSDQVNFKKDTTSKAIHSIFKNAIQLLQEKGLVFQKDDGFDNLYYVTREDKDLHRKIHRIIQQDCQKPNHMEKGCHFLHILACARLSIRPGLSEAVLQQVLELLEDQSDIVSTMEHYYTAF

Myc-S96D STN1 (human) = target: T2, Myc-S96D STN1 (human) (UniProt Q9H668); assay: as above
T2 sequence: T1 sequence with S96D

Myc-S96A-STN1 (human) = target: T3, Myc-S96A-STN1 (human) (UniProt Q9H668); assay: as above
T3 sequence: T1 sequence with S96A

Measured: binding

RAD51 (purified protein of the affinity pulldown) (from UniProt Q06609 1-339)
binds: [1] | [2] | [3]

DNA Polymerase α (POLα) (from UniProt P09884 1-1462)
binds: [4] | Myc-S96D STN1 (human) | Myc-S96A-STN1 (human)
